Patent publication US20260209325A1, “SELECTIVE AND POTENT INHIBITORY ANTIBODIES OF MYOSTATIN ACTIVATION” (SCHOLAR ROCK, INC., priority 2022, published 2026)
For some of these results: At least one compound was matched to its structure with a doubt left. Some results were stated once for a whole list of compounds, not compound by compound.

Key:
[1] = DIO mice on high fat diet treated with liraglutide and antibody (Example 3); assay type: in vivo, mouse; conditions: liraglutide alone; FIG. 11E
[2] = target: latent myostatin (Homo sapiens, UniProt O14793); assay: functional ELISA: inhibition of mTLL-2-induced activation of latent myostatin; assay type: biochemical; conditions: bounds stated in the description, read-out: IC50 of inhibition of myostatin activation / tolloid (mTLL2) cleavage
[3] = target: human pro-myostatin (Homo sapiens, UniProt O14793); assay: Biacore 8k SPR binding affinity, human pro-myostatin; conditions: bounds stated in the description; SPR-based assay such as Biacore; read-out: KD of binding to pro/latent myostatin
[4] = SURPASS-2 trial; cited from earlier work

CCCCCCCCCCCCCCCC(=O)N[C@@H](CCC(=O)NCCCC[C@H](NC(=O)[C@H](C)NC(=O)[C@H](C)NC(=O)[C@H](CCC(N)=O)NC(=O)CNC(=O)[C@H](CCC(=O)O)NC(=O)[C@H](CC(C)C)NC(=O)[C@H](Cc1ccc(O)cc1)NC(=O)[C@H](CO)NC(=O)[C@H](CO)NC(=O)[C@@H](NC(=O)[C@H](CC(=O)O)NC(=O)[C@H](CO)NC(=O)[C@@H](NC(=O)[C@H](Cc1ccccc1)NC(=O)[C@@H](NC(=O)CNC(=O)[C@H](CCC(=O)O)NC(=O)[C@H](C)NC(=O)[C@@H](N)Cc1cnc[nH]1)[C@@H](C)O)[C@@H](C)O)C(C)C)C(=O)N[C@@H](CCC(=O)O)C(=O)N[C@@H](Cc1ccccc1)C(=O)N[C@H](C(=O)N[C@@H](C)C(=O)N[C@@H](Cc1c[nH]c2ccccc12)C(=O)N[C@@H](CC(C)C)C(=O)N[C@H](C(=O)N[C@@H](CCCNC(=N)N)C(=O)NCC(=O)N[C@@H](CCCNC(=N)N)C(=O)NCC(=O)O)C(C)C)[C@@H](C)CC)C(=O)O [liraglutide, reference compound]
loss of lean mass [1]: 4%

Ab137: anti-pro/latent myostatin antibody; CDR sequences in Table 2d
IC50 [2]: < 1 nM | Kd [3]: < 1 nM

semaglutide [reference compound]
subjects reporting mild to moderate gastrointestinal adverse events [4]: 40-45%
